Test results taken from patent US20220160721A1, “METHODS OF TREATING CANCER” (Epizyme, Inc., priority 2016, published 2022).
Like-named read-outs stand apart in the source and are kept apart here.

What was measured:
[1] = test system: CAOV-3; assay: cells; conditions: Homo sapiens, Caov-3, 360 h, read-out: anti-proliferative IC50
[2] = test system: H3K27me3; assay: cells; conditions: Homo sapiens, PA-1, 96 h, read-out: Tazemetostat day 4 H3K327me3 IC50
[3] = test system: OAW42; assay: cells; conditions: Homo sapiens, OAW-42, 360 h, read-out: Tazemetostat Day 15 Proliferation IC50
[4] = test system: H3K27me3; assay: cells; conditions: 96 h, read-out: Tazemetostat day 4 H3K327me3 IC50
[5] = test system: JHOC5; assay: cells; conditions: 360 h, read-out: Tazemetostat Day 15 Proliferation IC50
[6] = test system: ovarian cancer cell lines; assay: cells; conditions: 360 h, read-out: day 15 IC50 values for ovarian cancer cell lines
[7] = test system: PA-1; conditions: read-out: Tazemetostat Day 15 Proliferation IC50; PA-1, long term proliferation day 15
[8] = test system: COV504; assay: cells; conditions: COV504, 360 h, read-out: anti-proliferative IC50
[9] = test system: OVK18; assay: cells; conditions: OVK18, 360 h, read-out: Tazemetostat Day 15 Proliferation IC50
[10] = test system: H3K27me3; assay: cells; conditions: Homo sapiens, OAW-42, 96 h, read-out: Tazemetostat day 4 H3K327me3 IC50
[11] = test system: COV434; assay: cells; conditions: COV434, 360 h, read-out: Tazemetostat Day 15 Proliferation IC50
[12] = test system: H3K27me3; assay: cells; conditions: OVK18, 96 h, read-out: Tazemetostat day 4 H3K327me3 IC50
[13] = test system: COV362; assay: cells; conditions: COV362, 360 h, read-out: Tazemetostat Day 15 Proliferation IC50
[14] = test system: TYK-NU; assay: cells; conditions: 360 h, read-out: Tazemetostat Day 15 Proliferation IC50
[15] = test system: Bin-67; assay: cells; conditions: 360 h, read-out: Tazemetostat Day 15 Proliferation IC50
[16] = test system: ES-2; assay: cells; conditions: Homo sapiens, ES-2, 360 h, read-out: Tazemetostat Day 15 Proliferation IC50
[17] = test system: TOV21G; assay: cells; conditions: Homo sapiens, 360 h, read-out: anti-proliferative IC50
[18] = test system: TOV112D; assay: cells; conditions: Homo sapiens, 360 h, read-out: Tazemetostat Day 15 Proliferation IC50
[19] = test system: PA-1; assay: cells; conditions: Homo sapiens, PA-1, 360 h, read-out: Tazemetostat Day 15 Proliferation IC50, PA-1, long term proliferation day 15

## CCN(c1cc(-c2ccc(CN3CCOCC3)cc2)cc(C(=O)NCc2c(C)cc(C)[nH]c2=O)c1C)C1CCOCC1 [tazemetostat]
[1]
  IC50: < 10 µM
[2]
  IC50: 40 nM
[3]
  IC50: > 10 µM
[4]
  IC50: 16 nM
[5]
  IC50: > 10 µM
[6]
  IC50: ≥ 73 nM
[7]
  IC50: 5.9 µM
[8]
  IC50: < 10 µM
[9]
  IC50: 860 nM
[10]
  IC50: 7 nM
[11]
  IC50: 73 nM
[12]
  IC50: 32 nM
[13]
  IC50: > 10 µM
[14]
  IC50: > 10 µM
[15]
  IC50: 290 nM
[16]
  IC50: > 10 µM
[17]
  IC50: < 10 µM
[18]
  IC50: 340 nM
[19]
  IC50: < 10 µM
